Assay results reported in publication PMC3149646.
No constants are given. Whether binding was seen depends on the method and setting. Binding seen in cells or lysates may run through a third protein. Some results given as binding are weak or reduced against the parent protein; the word gives no strength. Tags and fused reporters may be left off the sequences shown.

The chains behind the UniProt entries cited, without tags or fusion partners.
UniProt P42771: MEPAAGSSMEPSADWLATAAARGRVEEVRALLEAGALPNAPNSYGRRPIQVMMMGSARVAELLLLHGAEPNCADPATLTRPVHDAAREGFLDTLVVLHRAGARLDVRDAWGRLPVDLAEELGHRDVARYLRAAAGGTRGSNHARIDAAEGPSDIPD

Target: p16-Myc (pCDEF-Myc-p16) (UniProt P42771)
Assay: co-IP; 293T cells co-transfected with Myc- and Flag-tagged constructs; lysate immunoprecipitated with anti-Myc antibody, Western blot with Flag and Myc antibodies

B1: TSSK1-Flag (pCDEF-Flag-TSSK1) (enzyme, UniProt Q9BXA7 1-367)
chain: MDDAAVLKRRGYLLGINLGEGSYAKVKSAYSERLKFNVAIKIIDRKKAPADFLEKFLPREIEILAMLNHCSIIKTYEIFETSHGKVYIVMELAVQGDLLELIKTRGALHEDEARKKFHQLSLAIKYCHDLDVVHRDLKCDNLLLDKDFNIKLSDFSFSKRCLRDDSGRMALSKTFCGSPAYAAPEVLQGIPYQPKVYDIWSLGVILYIMVCGSMPYDDSNIKKMLRIQKEHRVNFPRSKHLTGECKDLIYHMLQPDVNRRLHIDEILSHCWMQPKARGSPSVAINKEGESSRGTEPLWTPEPGSDKKSATKLEPEGEAQPQAQPETKPEGTAMQMSRQSEILGFPSKPSTMETEEGPPQQPPETRAQ
For B1, the binding was “binds”.
